# Results taken from PubChem BioAssay AID504834 (National Center for Advancing Translational Sciences (NCATS), 2011).
# Screen size: about 320,000 compounds; about 22,000 (6.9%) were called active. The inconclusive results got no clear call from the source; some entries with a clear call stand among them for comparison. Calls come from the whole dose curve; as a rule, active = well fitted inhibition curve with a large enough effect; inconclusive = small, poorly fitted or top-dose-only effect, or another doubt; inactive = no such curve, though single readings can be large or run the other way. Where the call is inconclusive, the potency comes from a doubtful curve fit.
# Experiment: Primary qHTS for delayed death inhibitors of the malarial parasite plastid, 96 hour incubation
# Conditions: P. falciparum luciferase reporter growth; series mostly up to 28.7 µM; activity change, negative = inhibition: at the top concentration
# Outline: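 P. falciparum expressing integrated firefly luciferase grown in erythrocytes (2% hematocrit, 0.05% parasitemia final) with compounds for 96 hours at 37 C, 5% CO2. Growth inhibition read as loss of luminescence after adding luciferase detection reagent.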
# % is set by controls: 0 for no effect and ±100 for the full control effect; potency is the fitted concentration of half-maximal effect.
SMILES,Potency,"activity change, negative = inhibition"
CC(=O)c1cccc(NC(=O)c2cnn3ccccc23)c1,"inconclusive: 13.1 µM [inhibitor, partial curve, poor fit]",
CC1CCN(S(=O)(=O)c2ccc(C(=O)Nc3nnc(C4CC4)o3)cc2)CC1,"inconclusive: 13.1 µM [inhibitor, single point]",
O=C(CSc1nc(N2CCOCC2)nc(N2CCOCC2)n1)Nc1cccc(C(F)(F)F)c1,active: 2.08 µM,
OCC1CCN(Cc2nc(Cc3ccccc3Cl)no2)CC1,"inconclusive: 16.5 µM [inhibitor, single point]",
CCOc1ccccc1/C=C\c1nc(O)c([N+](=O)[O-])c(=O)[nH]1,,inactive: -6.16%
CCC(C)Sc1nc2c(c(=O)[nH]c(=O)n2C)n1Cc1ccccc1Cl (configuration not stated),"inconclusive: 13.1 µM [inhibitor, single point]",
CSc1ncccc1C(=O)Nc1cccc(C)n1,,inactive: 39.6%
CON/C=C(\C=Nc1ccc(Cl)cc1)c1ncc(C(F)(F)F)cc1Cl,"inconclusive: 10.4 µM [inhibitor, single point]",
Cc1cccc(C)c1OCC(O)CNS(=O)(=O)c1ccccc1C(=O)N1CCCCC1 (configuration not stated),active: 11.7 µM,
CCc1nnc(NC(=O)c2ccc(S(=O)(=O)NCC(C)C)cc2)s1,active: 1.65 µM,
CC(C)(C)Nc1ncnc2sc(-c3ccccc3)cc12,"inconclusive: 18.5 µM [inhibitor, single point]",
CS/C(=C\[N+](=O)[O-])Nc1ccc(C)cc1,"inconclusive: 18.5 µM [inhibitor, single point]",
CCOC(=O)N1CCN(S(=O)(=O)N2CCCC(C(=O)NCc3ccc(F)cc3)C2)CC1 (configuration not stated),"inconclusive: 18.5 µM [inhibitor, single point]",
COc1ccc(NC(=O)CCS(=O)(=O)c2ccc3c(c2)CCN3C(C)=O)cc1,active: 11.7 µM,
C/C(=N\NC(=O)c1nnn(-c2nonc2N)c1CN(C)c1ccccc1)c1cccs1,,inactive: 33%
Cc1cc(C)c2sc(N(CCN(C)C)C(=O)c3c(F)cccc3F)nc2c1,"inconclusive: 10.4 µM [inhibitor, single point]",
CCOC(=O)/C(C#N)=C/C=C1\C=Cc2ccccc2N1CC,"inconclusive: 1.47 µM [inhibitor, full curve, poor fit]",
O=C1NC2(CCCCC2)N(C(=O)c2ccccc2)C2=C1CCCC2,"inconclusive: 13.1 µM [inhibitor, single point]",
Cc1ccc(S(=O)(=O)CCC(=O)Nc2nc(-c3cccnc3)cs2)cc1,,inactive: 24.2%
Cc1cccnc1NC(=O)c1ccc(COc2ccccc2)o1,,inactive: 45.5%
Cc1cccc(N(CC(=O)NC(C)(C)C)C(=O)CNC(=O)c2cccs2)c1C,"inconclusive: 4.15 µM [inhibitor, partial curve, poor fit]",
CCN(Cc1nc2cc(Cl)ccc2c(=O)[nH]1)C(=O)c1nn(C)c(=O)c2ccccc12,"inconclusive: 14.7 µM [inhibitor, partial curve, poor fit]",
C=CCOc1ccc2ccccc2c1CNn1c(C)n[nH]c1=S,"inconclusive: 18.5 µM [inhibitor, single point]",
COCCNC(=S)N1CCc2cc(OC)c(OC)cc2C1COc1ccc(C(C)C)cc1 (configuration not stated),active: 8.28 µM,

# Structural class, the compounds so far with a nitro group on carbon (2)
SMILES,Potency,"activity change, negative = inhibition"
CCOc1ccccc1/C=C\c1nc(O)c([N+](=O)[O-])c(=O)[nH]1,,inactive: -6.16%
CS/C(=C\[N+](=O)[O-])Nc1ccc(C)cc1,"inconclusive: 18.5 µM [inhibitor, single point]",

# The listing continues.

SMILES,Potency,"activity change, negative = inhibition"
COc1ccccc1N/C(N)=N/c1nc(C(F)(F)F)cc(=O)[nH]1,,inactive: 4.7%
CC1=CC(C)(C)N(C(=O)CN2C(=O)c3ccccc3C2=O)c2ccccc21,"inconclusive: 0.928 µM [inhibitor, full curve, poor fit]",
COC(=O)/C(C#N)=C/c1c(N2CCCCCC2)nc2ccccn2c1=O,"inconclusive: 10.4 µM [inhibitor, partial curve, poor fit]",
COc1ccc(C)cc1NC(=O)CSc1nnc2ccc(-c3cccnc3)nn12,"inconclusive: 11.7 µM [inhibitor, partial curve, poor fit]",
Cc1cccc(Nc2nnc(SCC(=O)Nc3ccccc3[N+](=O)[O-])s2)c1C,"inconclusive: 11.7 µM [inhibitor, single point]",
Nc1ccc2nc(SCC(=O)N3CCN(c4ccccc4)CC3)sc2c1,"inconclusive: 10.4 µM [inhibitor, single point]",
O=C(O)C1CCCN1S(=O)(=O)c1ccc2c(c1)CCC2 (configuration not stated),"inconclusive: 18.5 µM [inhibitor, single point]",
O=C(Nc1cccc(-c2nc3ccccc3[nH]2)c1)c1ccc(C(=O)Nc2cccc(-c3nc4ccccc4[nH]3)c2)cc1,active: 0.37 µM,
CCOC(=O)c1ccc(NCc2nc3ccccc3n2C)cc1,,inactive: 18.3%
CC1CC(C)CN(CC(=O)N2CCOCC2)C1 (configuration not stated),,inactive: 11.6%
COC(=O)c1nnn(CC(=O)NC(=O)Nc2ccc(F)cc2)c1C(=O)OC,"inconclusive: 3.29 µM [inhibitor, single point]",
Cc1cccc(N2CCN(C(=O)c3ccccc3NC(=O)C3=CSCCO3)CC2C)c1 (configuration not stated),"inconclusive: 13.1 µM [inhibitor, partial curve, poor fit]",
CSc1nnc(-c2cnccn2)n1CCCN1CCCC1=O,active: 7.38 µM,
COc1cc(CNCCN2CCOCC2)ccc1OCc1ccc(Cl)cc1Cl,active: 2.33 µM,
Cc1ccc(C)c(OCC(=O)NCC(c2ccco2)N2CCCCC2)c1 (configuration not stated),"inconclusive: 16.5 µM [inhibitor, single point]",
Cc1ccc(NC(=O)C(C)OC(=O)CCN=C2NS(=O)(=O)c3ccccc32)cc1 (configuration not stated),,inactive: 16.1%
Cc1cc(NC(=O)CCC(=O)N(Cc2ccco2)C(C(=O)NC2CCCCC2)c2ccccc2)no1 (configuration not stated),,inactive: 0.3%
CCCCC1CCC(C(=O)N(CCOC)c2c(N)n(CCCC)c(=O)[nH]c2=O)CC1 (configuration not stated),,inactive: 9.72%
COc1ccc(NC(=O)CN(C)S(=O)(=O)c2cccc3nsnc23)cc1OC,"inconclusive: 13.1 µM [inhibitor, single point]",
Cc1cccc(C(=O)N2CC3(C)CC2CC(C)(C)C3)c1 (configuration not stated),"inconclusive: 0.0465 µM [inhibitor, full curve, poor fit]",
Cc1ccc(OCCn2c(=O)sc3ccccc32)cc1,"inconclusive: 14.7 µM [inhibitor, single point]",
CCC(C(=O)OC)n1c(-c2ccccc2)nc2ccccc2c1=O (configuration not stated),"inconclusive: 14.7 µM [inhibitor, single point]",
O=[N+]([O-])c1ccccc1S(=O)(=O)N1CCN(c2ccc(F)cc2)CC1,"inconclusive: 0.415 µM [inhibitor, partial curve, poor fit]",
C[N+]1(CCOC(=O)C2(c3ccccc3)CCCC2)CCCCC1,,inactive: 10.4%

SMILES,Potency,"activity change, negative = inhibition"
COc1cccc(C(=O)C2CCCN(Cc3cccn3-c3cccnc3)C2)c1 (configuration not stated),"inconclusive: 20.8 µM [inhibitor, single point]",
Cc1ccccc1NC(=O)CN1C(=O)COc2ccc(Cl)cc21,"inconclusive: 18.5 µM [inhibitor, single point]",
Cc1ccc(NC(=O)NC2=N/C(=C(/C#N)C(=O)N3CCCC3)c3ccccc32)cc1,"inconclusive: 10.4 µM [inhibitor, single point]",
CCc1ccccc1NC(=O)[C@@H]1CCC(=O)N1C1OC(=O)c2ccccc21 (some centres not stated),,inactive: 0.811%
COc1ccc(CNc2oc(COc3ccccc3Cl)nc2C#N)cc1,active: 1.47 µM,
CCOC(=O)c1cnc2ccc(C)cc2c1NCCN1CCOCC1,,inactive: 13.8%
Nc1c(C(=O)c2ccccc2)oc2ccc(Br)cc12,"inconclusive: 16.5 µM [inhibitor, single point]",
Nn1c(SCC(=O)NC(=O)NC2CCCC2)nnc1-c1ccccc1F,"inconclusive: 3.7 µM [inhibitor, single point]",
CC(=O)c1c(C)[nH]c(C(=O)N2CC(C)CC(C)C2)c1C (configuration not stated),"inconclusive: 2.62 µM [inhibitor, full curve, poor fit]",
O=C1CCCC2=C1C(c1ccccc1)CC(=O)N2c1ccc(F)cc1F (configuration not stated),,inactive: 90.4%
CCCCCCCCCCCCCCCCn1cc[n+](CC(C)=O)c1,,inactive: 21%
O=C(COC(=O)c1ccc(O)cc1)c1ccc(S(=O)(=O)N2CCCCC2)cc1,"inconclusive: 3.7 µM [inhibitor, full curve, poor fit]",
O=C(NCCc1ccccc1)C(c1cccs1)N(C(=O)CCl)c1ccc(Cl)cc1 (configuration not stated),"inconclusive: 18.5 µM [inhibitor, single point]",
O=C(Nc1ccc(N2CCCCC2)c(C(=O)O)c1)c1ccco1,"inconclusive: 18.5 µM [inhibitor, partial curve, poor fit]",
COC(=O)C1=C(C)NC(=O)CC1c1cc(Br)ccc1F (configuration not stated),"inconclusive: 10.4 µM [inhibitor, single point]",
CCC(=O)Nc1c(S(=O)(=O)c2ccccc2)c2nc3ccccc3nc2n1C(C)c1ccccc1 (configuration not stated),active: 11.7 µM,
Cc1ccc(SCC(=O)OCC(=O)NCCC2=CCCCC2)cc1,,inactive: 7.41%
COc1cc(OC)c(OC)cc1/C=N/Nc1ncnc2c1[nH]c1ccc(C)cc12,"inconclusive: 1.65 µM [inhibitor, full curve]",
COc1ccc(Cc2nc3ccc(C(=O)N(C)CCc4cnn(C)c4)cc3o2)cc1OC,"inconclusive: 18.5 µM [inhibitor, single point]",
COC(=O)c1cc(C(C)=O)c(C)[nH]c1=O,active: 5.22 µM,
O=S(=O)(O)c1cc(O)ccc1O,inactive,
CCn1c(/N=C/c2c[nH]c3ccccc23)nc2ccccc21,active: 1.85 µM,
COc1cccc(C(=O)NCc2cn3ccsc3n2)c1,,inactive: 21.6%
O=C(Nc1ccc(S(=O)(=O)N2CCCCC2)cc1)C1CC(=O)N(c2ccccc2)C1 (configuration not stated),"inconclusive: 18.5 µM [inhibitor, single point]",

# Entries shown so far that contain a COOH group (2):
SMILES,Potency,"activity change, negative = inhibition"
O=C(O)C1CCCN1S(=O)(=O)c1ccc2c(c1)CCC2 (configuration not stated),"inconclusive: 18.5 µM [inhibitor, single point]",
O=C(Nc1ccc(N2CCCCC2)c(C(=O)O)c1)c1ccco1,"inconclusive: 18.5 µM [inhibitor, partial curve, poor fit]",
